# Test results from patent US12612394B2, “Herbicidal malonamides” (BASF SE, priority 2020, dated 2026).
# Some results were stated once for a whole list of compounds, not compound by compound.
# Key:
# [1] = system: AMARE; test: greenhouse experiment, post-emergence treatment; format: in vivo, Amaranthus retroflexus; details: post-emergence method
# From the text: (§1) The culture containers used were plastic flowerpots containing loamy sand with approximately 3.0% of humus as the substrate. The seeds of the test plants were sown separately for each species.
# (§2) For the pre-emergence treatment, the active ingredients, which had been suspended or emulsified in water, were applied directly after sowing by means of finely distributing nozzles. The containers were irrigated gently to promote germination and growth and subsequently covered with transparent plastic hoods until the test plants had rooted. This cover caused uniform germination of the test plants, unless this had been impaired by the active ingredients. For the post-emergence treatment, the test plants were first grown to a height of 3 to 15 cm, depending on the plant habit, and only then treated with the active ingredients which had been suspended or emulsified in water. For this purpose, the test plants were either sown directly and grown in the same containers, or they were first grown separately as seedlings and transplanted into the test containers a few days prior to treatment.
# (§3) Depending on the species, the test plants were kept at 10-25° C. or 20-35° C., respectively. The test period extended over 2 to 4 weeks. During this time, the test plants were tended, and their response to the individual treatments was evaluated.
# (§4) Evaluation was carried out using a scale from 0 to 100. 100 means no emergence of the test plants, or complete destruction of at least the aerial moieties, and 0 means no damage, or normal course of growth. A good herbicidal activity is given at values of 70 to 90 and a very good herbicidal activity is given at values of 90 to 100.
# (§5) The test plants used in the greenhouse experiments were of the following species: […]
# [2] = system: SETFA; test: greenhouse experiment, pre-emergence treatment; format: in vivo, Setaria faberi; details: pre-emergence method
# From the text: as §1, §2, §3, §4, §5
# [3] = system: APESV; test: greenhouse experiment, pre-emergence treatment; format: in vivo, Apera spica-venti; details: pre-emergence method
# [4] = system: ABUTH; test: greenhouse experiment, post-emergence treatment; format: in vivo, Abutilon theophrasti; details: post-emergence method
# [5] = system: ALOMY; test: greenhouse experiment, post-emergence treatment; format: in vivo, Alopercurus myosuroides; details: post-emergence method
# [6] = system: AMARE; test: greenhouse experiment, pre-emergence treatment; format: in vivo, Amaranthus retroflexus; details: pre-emergence method
# From the text: as §1, §2, §3, §4, §5
# [7] = system: AVEFA; test: greenhouse experiment, post-emergence treatment; format: in vivo, Avena fatua; details: post-emergence method
# [8] = system: ECHCG; test: greenhouse experiment, pre-emergence treatment; format: in vivo, Echinocloa crus-galli; details: pre-emergence method
# From the text: as §1, §2, §3, §4, §5
compound,measurement,setting,value
COC(=O)[C@@H]1CC[C@H](NC(=O)C(OC)C(=O)Nc2cc(F)cc(F)c2)C1 (relative stereo) [I.109],herbicidal activity against AMARE,[1]; application rate 0.500 kg/ha,very good (a very good herbicidal activity is given at values of 90 to 100)
same,herbicidal activity against SETFA,[2]; application rate 0.500 kg/ha,good (A good herbicidal activity is given at values of 70 to 90)
same,herbicidal activity against APESV,[3]; application rate 0.500 kg/ha,very good (a very good herbicidal activity is given at values of 90 to 100)
same,herbicidal activity against ABUTH,[4]; application rate 0.500 kg/ha,very good (a very good herbicidal activity is given at values of 90 to 100)
COC(=O)[C@@H]1C=C[C@H](NC(=O)C(OC)C(=O)Nc2cc(C)cc(C)c2)C1 (relative stereo) [I.158],herbicidal activity against AMARE,[1]; application rate 0.500 kg/ha,good (A good herbicidal activity is given at values of 70 to 90)
same,herbicidal activity against SETFA,[2]; application rate 0.500 kg/ha,very good (a very good herbicidal activity is given at values of 90 to 100)
same,herbicidal activity against APESV,[3]; application rate 0.500 kg/ha,very good (a very good herbicidal activity is given at values of 90 to 100)
same,herbicidal activity against ABUTH,[4]; application rate 0.500 kg/ha,very good (a very good herbicidal activity is given at values of 90 to 100)
COC(C(=O)Nc1cc(F)cc(C#N)c1)C(=O)N[C@H]1C=C[C@@H](C(=O)OC(C)C)C1 (relative stereo) [I.161],herbicidal activity against ALOMY,[5]; application rate 0.250 kg/ha,very good (a very good herbicidal activity is given at values of 90 to 100)
same,herbicidal activity against AMARE,[6]; application rate 0.250 kg/ha,very good (a very good herbicidal activity is given at values of 90 to 100)
same,herbicidal activity against AMARE,[1]; application rate 0.250 kg/ha,very good (a very good herbicidal activity is given at values of 90 to 100)
same,herbicidal activity against SETFA,[2]; application rate 0.250 kg/ha,very good (a very good herbicidal activity is given at values of 90 to 100)
same,herbicidal activity against APESV,[3]; application rate 0.250 kg/ha,very good (a very good herbicidal activity is given at values of 90 to 100)
same,herbicidal activity against ABUTH,[4]; application rate 0.250 kg/ha,very good (a very good herbicidal activity is given at values of 90 to 100)
COC(=O)CC(C)NC(=O)C(OC)C(=O)Nc1cc(Cl)cc(Cl)c1 (stereo not shown) [I.9],herbicidal activity against AVEFA,[7]; application rate 0.500 kg/ha,very good (a very good herbicidal activity is given at values of 90 to 100)
same,herbicidal activity against ECHCG,[8]; application rate 0.500 kg/ha,very good (a very good herbicidal activity is given at values of 90 to 100)
same,herbicidal activity against APESV,[3]; application rate 0.500 kg/ha,very good (a very good herbicidal activity is given at values of 90 to 100)
COC(=O)CC(C)NC(=O)C(OC)C(=O)Nc1cc(F)c(F)c(F)c1 (stereo not shown) [I.33],herbicidal activity against ALOMY,[5]; application rate 0.500 kg/ha,very good (a very good herbicidal activity is given at values of 90 to 100)
same,herbicidal activity against AVEFA,[7]; application rate 0.500 kg/ha,very good (a very good herbicidal activity is given at values of 90 to 100)
same,herbicidal activity against ECHCG,[8]; application rate 0.500 kg/ha,very good (a very good herbicidal activity is given at values of 90 to 100)
same,herbicidal activity against APESV,[3]; application rate 0.500 kg/ha,very good (a very good herbicidal activity is given at values of 90 to 100)
COC(=O)[C@H]1C[C@H](NC(=O)C(OC)C(=O)Nc2cc(F)cc(F)c2)C1 (stereo partly shown) [I.39],herbicidal activity against ALOMY,[5]; application rate 0.500 kg/ha,very good (a very good herbicidal activity is given at values of 90 to 100)
same,herbicidal activity against AVEFA,[7]; application rate 0.500 kg/ha,very good (a very good herbicidal activity is given at values of 90 to 100)
same,herbicidal activity against ECHCG,[8]; application rate 0.500 kg/ha,very good (a very good herbicidal activity is given at values of 90 to 100)
same,herbicidal activity against APESV,[3]; application rate 0.500 kg/ha,very good (a very good herbicidal activity is given at values of 90 to 100)
CCOC(=O)CCC(C)NC(=O)C(OC)C(=O)Nc1cc(F)cc(F)c1 (stereo not shown) [I.57],herbicidal activity against AMARE,[1]; application rate 0.500 kg/ha,very good (a very good herbicidal activity is given at values of 90 to 100)
same,herbicidal activity against SETFA,[2]; application rate 0.500 kg/ha,very good (a very good herbicidal activity is given at values of 90 to 100)
same,herbicidal activity against APESV,[3]; application rate 0.500 kg/ha,very good (a very good herbicidal activity is given at values of 90 to 100)
COC(=O)C1COCC1NC(=O)C(OC)C(=O)Nc1cc(Cl)cc(Cl)c1 (stereo not shown) [I.58],herbicidal activity against AMARE,[1]; application rate 0.500 kg/ha,very good (a very good herbicidal activity is given at values of 90 to 100)
same,herbicidal activity against SETFA,[2]; application rate 0.500 kg/ha,good (A good herbicidal activity is given at values of 70 to 90)
same,herbicidal activity against APESV,[3]; application rate 0.500 kg/ha,very good (a very good herbicidal activity is given at values of 90 to 100)
COC(=O)CCCCNC(=O)C(OC)C(=O)Nc1cc(Cl)cc(Cl)c1 (stereo not shown) [I.64],herbicidal activity against ALOMY,[5]; application rate 0.500 kg/ha,very good (a very good herbicidal activity is given at values of 90 to 100)
same,herbicidal activity against AMARE,[6]; application rate 0.500 kg/ha,very good (a very good herbicidal activity is given at values of 90 to 100)
same,herbicidal activity against AVEFA,[7]; application rate 0.500 kg/ha,very good (a very good herbicidal activity is given at values of 90 to 100)
same,herbicidal activity against APESV,[3]; application rate 0.500 kg/ha,good (A good herbicidal activity is given at values of 70 to 90)
COC(C(=O)Nc1cc(F)cc(F)c1)C(=O)NC1COC(C(=O)O)C1 (stereo not shown) [I.101],herbicidal activity against SETFA,"[2]; application rate 1,000 kg/ha",very good (a very good herbicidal activity is given at values of 90 to 100)
same,herbicidal activity against APESV,"[3]; application rate 1,000 kg/ha",very good (a very good herbicidal activity is given at values of 90 to 100)
COC(=O)[C@H]1C[C@@H](NC(=O)C(OC)C(=O)Nc2cc(F)cc(F)c2)C1 (stereo partly shown) [I.104],herbicidal activity against ALOMY,[5]; application rate 0.500 kg/ha,very good (a very good herbicidal activity is given at values of 90 to 100)
same,herbicidal activity against SETFA,[2]; application rate 0.500 kg/ha,very good (a very good herbicidal activity is given at values of 90 to 100)
same,herbicidal activity against APESV,[3]; application rate 0.500 kg/ha,very good (a very good herbicidal activity is given at values of 90 to 100)
same,herbicidal activity against ABUTH,[4]; application rate 0.500 kg/ha,very good (a very good herbicidal activity is given at values of 90 to 100)
COc1cc(F)cc(NC(=O)C(OC)C(=O)NC2C=CC(C(=O)OC(C)C)C2)c1 (stereo not shown) [I.164],herbicidal activity against ALOMY,[5]; application rate 0.250 kg/ha,very good (a very good herbicidal activity is given at values of 90 to 100)
same,herbicidal activity against AMARE,[6]; application rate 0.250 kg/ha,good (A good herbicidal activity is given at values of 70 to 90)
same,herbicidal activity against AMARE,[1]; application rate 0.250 kg/ha,good (A good herbicidal activity is given at values of 70 to 90)
same,herbicidal activity against SETFA,[2]; application rate 0.250 kg/ha,very good (a very good herbicidal activity is given at values of 90 to 100)
same,herbicidal activity against APESV,[3]; application rate 0.250 kg/ha,very good (a very good herbicidal activity is given at values of 90 to 100)
same,herbicidal activity against ABUTH,[4]; application rate 0.250 kg/ha,very good (a very good herbicidal activity is given at values of 90 to 100)
C#CCOC(C(=O)Nc1cc(Cl)cc(Cl)c1)C(=O)NC1C=CC(C(=O)OC)C1 (stereo not shown) [I.172],herbicidal activity against ALOMY,[5]; application rate 0.250 kg/ha,very good (a very good herbicidal activity is given at values of 90 to 100)
same,herbicidal activity against AMARE,[6]; application rate 0.250 kg/ha,very good (a very good herbicidal activity is given at values of 90 to 100)
same,herbicidal activity against AVEFA,[7]; application rate 0.250 kg/ha,very good (a very good herbicidal activity is given at values of 90 to 100)
same,herbicidal activity against APESV,[3]; application rate 0.250 kg/ha,very good (a very good herbicidal activity is given at values of 90 to 100)
same,herbicidal activity against ABUTH,[4]; application rate 0.250 kg/ha,very good (a very good herbicidal activity is given at values of 90 to 100)
"COC(C(=O)Nc1cc(Cl)cc(Cl)c1)C(=O)N[C@H]1C=C[C@@H](C(=O)OCc2ccccc2)C1 (stereo partly drawn) [I.175, benzyl (1S,4R)-4-[[3-(3,5-dichloroanilino)-2-methoxy-3-oxo-propanoyl]amino]cyclopent-2-ene-1-carboxylate]",herbicidal activity against ALOMY,[5]; application rate 0.250 kg/ha,very good (a very good herbicidal activity is given at values of 90 to 100)
same,herbicidal activity against AMARE,[6]; application rate 0.250 kg/ha,very good (a very good herbicidal activity is given at values of 90 to 100)
same,herbicidal activity against AMARE,[1]; application rate 0.250 kg/ha,very good (a very good herbicidal activity is given at values of 90 to 100)
same,herbicidal activity against ECHCG,[8]; application rate 0.250 kg/ha,very good (a very good herbicidal activity is given at values of 90 to 100)
same,herbicidal activity against SETFA,[2]; application rate 0.250 kg/ha,very good (a very good herbicidal activity is given at values of 90 to 100)
same,herbicidal activity against ABUTH,[4]; application rate 0.250 kg/ha,very good (a very good herbicidal activity is given at values of 90 to 100)
COC(=O)[C@@H]1C=C[C@H](NC(=O)C(OC)C(=O)Nc2ccc(C)c(Cl)c2)C1 (stereo partly shown) [I.191],herbicidal activity against ALOMY,[5]; application rate 0.125 kg/ha,very good (a very good herbicidal activity is given at values of 90 to 100)
same,herbicidal activity against AMARE,[6]; application rate 0.125 kg/ha,very good (a very good herbicidal activity is given at values of 90 to 100)
same,herbicidal activity against AVEFA,[7]; application rate 0.125 kg/ha,good (A good herbicidal activity is given at values of 70 to 90)
same,herbicidal activity against ECHCG,[8]; application rate 0.125 kg/ha,good (A good herbicidal activity is given at values of 70 to 90)
same,herbicidal activity against ABUTH,[4]; application rate 0.125 kg/ha,good (A good herbicidal activity is given at values of 70 to 90)
COC(=O)CC(C)NC(=O)C(OC(F)F)C(=O)Nc1cc(Cl)cc(Cl)c1 (stereo not shown) [I.208],herbicidal activity against ALOMY,[5]; application rate 0.500 kg/ha,good (A good herbicidal activity is given at values of 70 to 90)
same,herbicidal activity against AVEFA,[7]; application rate 0.500 kg/ha,very good (a very good herbicidal activity is given at values of 90 to 100)
same,herbicidal activity against SETFA,[2]; application rate 0.500 kg/ha,very good (a very good herbicidal activity is given at values of 90 to 100)
same,herbicidal activity against APESV,[3]; application rate 0.500 kg/ha,good (A good herbicidal activity is given at values of 70 to 90)
